Experimental data published in publication PMC4992063, “PARP3 is a sensor of nicked nucleosomes and monoribosylates histone H2BGlu2”.
For at least one entry, the source does not settle the construct or the ends of the probe. Negatives hold for the conditions tested. At least one verdict rests on a figure or table, not on a statement of the authors. Protein sequences can lack the tags named with them.

Target: T1, cPARP3 NTD-WGR (1-169) (Gallus gallus) (UniProt E1BSI0)
T1 sequence (looked up): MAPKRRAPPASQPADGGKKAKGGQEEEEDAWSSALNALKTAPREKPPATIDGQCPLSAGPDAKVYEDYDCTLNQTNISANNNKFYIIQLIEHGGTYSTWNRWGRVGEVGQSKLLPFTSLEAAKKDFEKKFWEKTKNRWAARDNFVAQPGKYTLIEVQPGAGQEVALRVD
Experiment: NMR (1H-15N HSQC)
Settings: no 5'-phosphate, no significant perturbations in WGR; none (5'-OH at nick); NMR: 20 mM Tris-HCl pH 7.0, 125 mM NaCl, 1 mM TCEP, 10% D2O, 303 K, ~300 uM protein; recombinant protein; residues 1-169

GCACAGCCGTGAGCGATGC / GCATCGCTCA / CGGCTGTGC [NMR DNA substrate lacking 5'-phosphate]
binding result: no binding
